According to patent EP0813419B1 (YEDA RESEARCH & DEVELOPMENT COMPANY, LTD., dated 2005):
Results are given in words; binding and its absence hold for the method and conditions named. For part of these data: In cells and extracts the contact can be indirect. Some binding calls cover weakened binding; strength is not graded here. For part of these data: Where a sequence is shown, tags or fusion partners need not be part of it.

The chains behind the UniProt entries cited, without tags or fusion partners.
UniProt Q13158: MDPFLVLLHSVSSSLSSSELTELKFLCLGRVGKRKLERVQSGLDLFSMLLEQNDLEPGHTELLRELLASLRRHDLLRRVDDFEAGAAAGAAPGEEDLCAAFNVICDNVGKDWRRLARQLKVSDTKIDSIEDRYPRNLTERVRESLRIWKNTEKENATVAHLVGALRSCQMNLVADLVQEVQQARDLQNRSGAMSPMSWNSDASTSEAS

T1: DD of TRADD (amino acids 195-312), fused at its N-terminus either with the FLAG octapeptide or the HA epitope (human) (UniProt Q15628)
T1 sequence (looked up): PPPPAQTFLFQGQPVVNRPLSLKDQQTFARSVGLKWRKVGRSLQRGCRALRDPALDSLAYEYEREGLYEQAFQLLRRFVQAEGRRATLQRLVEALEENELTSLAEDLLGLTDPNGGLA


Experiments:
[1] = molecular target: T1, DD of TRADD (amino acids 195-312), fused at its N-terminus either with the FLAG octapeptide or the HA epitope (human); assay: co-immunoprecipitation from lysates of transfected HeLa cells, 35S label, SDS-PAGE (15% acrylamide), autoradiography
[2] = molecular target: T1, DD of TRADD (amino acids 195-312), fused at its N-terminus either with the FLAG octapeptide or the HA epitope (human); assay: co-immunoprecipitation from lysates of transfected HeLa cells (anti-FLAG M2 or anti-HA 12CA5), 35S label, SDS-PAGE, autoradiography
[3] = molecular target: MORT-1 (bait of a two-hybrid screen) (UniProt Q13158); assay: yeast two-hybrid library screen with MORT-1 as bait (not shown)

| binding [3] | Molecule | binding [1] | binding [2] |
| --- | --- | --- | --- |
| – | MORT-1 (nucleotides 19-753 in GenBank accession number U24231), fused at its N-terminus with the FLAG octapeptide (from UniProt Q13158 1-208) | binds | binds |
| binds | TRADD (encoded by cDNAs cloned in the MORT-1 two-hybrid screen) (protein, UniProt Q15628 1-312, looked up) MAAGQNGHEEWVGSAYLFVESSLDKVVLSDAYAHPQQKVAVYRALQAALAESGGSPDVLQMLKIHRSDPQLIVQLRFCGRQPCGRFLRAYREGALRAALQRSLAAALAQHSVPLQLELRAGAERLDALLADEERCLSCILAQQPDRLRDEELAELEDALRNLKCGSGARGGDGEVASAPLQPPVPSLSEVKPPPPPPPAQTFLFQGQPVVNRPLSLKDQQTFARSVGLKWRKVGRSLQRGCRALRDPALDSLAYEYEREGLYEQAFQLLRRFVQAEGRRATLQRLVEALEENELTSLAEDLLGLTDPNGGLA | – | – |
